{
  "source": "patent US20230218693A1",
  "about": "“HEMP SPROUT PRODUCTS AND METHODS FOR PRODUCING SAME” (priority 2020, published 2023)",
  "origin": "cited, not measured here",
  "system": "freshly isolated human blood cells",
  "details": "Cell viability; 3 μM",
  "data": [
    {"compound": "CN[C@@H]1C[C@H]2O[C@@](C)([C@@H]1OC)n1c3ccccc3c3c4c(c5c6ccccc6n2c5c31)C(=O)NC4", "note": "[staurosporine, reference compound]", "values": [
      {"measurement": "Reference control, % inhibition at indic. conc.", "value": "staurosporine (3 μM), 80 ± 5%"}
    ]}
  ]
}
